The record followed here is PMC10148886.

Sequences of proteins named here, by UniProt entry; tags and fusion partners are left off.
UniProt Q9ULZ3: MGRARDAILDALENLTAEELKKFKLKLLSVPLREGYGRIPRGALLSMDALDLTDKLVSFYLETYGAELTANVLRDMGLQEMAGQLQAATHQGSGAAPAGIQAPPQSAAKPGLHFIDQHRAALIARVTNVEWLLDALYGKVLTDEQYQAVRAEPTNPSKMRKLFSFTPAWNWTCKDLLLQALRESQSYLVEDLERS

Assay [1] addresses endogenous ASC (extracellular ASC specks in cell-free supernatants of stimulated THP-1 cells) (human (endogenous in THP-1)) (UniProt Q9ULZ3). The assay is described as follows: sucrose-gradient ultracentrifugation; cell-free supernatants of LPS/nigericin-stimulated THP-1 cells with 5 μM rB7 or rOff for 1 h; 5-45% sucrose, 167,000×g, 10 min, fourteen fractions, western blot of caspase-1 and ASC. On the technique in general: Immunoblotting shows a protein as a band on a membrane.

Assay [2] has the same target. The experiment in a line: pull-down; the same experiment as a13, for the two endogenous proteins of the supernatant found together on GST-fused rB7.
The target of assay [3] is recombinant full-length ASC (ASC specks from TEV-cleaved MBP-fused ASC) (UniProt Q9ULZ3). The assay is described as follows: sucrose-gradient ultracentrifugation; recombinant ASC specks treated with 5 μM rB7 or rOff for 30 min, then 15 μM MBP-fused caspase-1^CARD-SUMO-FLAG and TEV protease for 1 h; 5-45% sucrose, fourteen fractions, western blot; both purified.
For assay [4], the target named is FLAG-tagged caspase-1^CARD (released from MBP by TEV protease) (UniProt P29466). The experiment in a line: 100 K MWCO filtration with western blot; ASC specks from 2.5 μM MBP-fused full-length ASC treated with 5 μM rB7 or rOff for 1 h (or no ASC specks), then 1 h with 10 μM MBP-fused FLAG-tagged caspase-1^CARD and TEV protease; retained material blotted; both purified.

Assay [5] concerns the target recombinant full-length ASC (ASC specks from TEV-cleaved MBP-fused ASC) (UniProt Q9ULZ3). Described as above.
In assay [6] the target is T1, caspase-1^CARD-SUMO labelled with DyLight 550 or DyLight 650 (released from MBP by TEV protease), P29466.
T1 chain: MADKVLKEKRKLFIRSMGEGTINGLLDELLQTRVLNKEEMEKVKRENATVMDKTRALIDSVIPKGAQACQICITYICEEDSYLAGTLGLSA
The experiment in a line: FRET or BRET; MBP-fused caspase-1^CARD-SUMO labelled with DyLight 550 and with DyLight 650 mixed, TEV protease added in the presence of recombinant ASC specks treated with rB7 or rOff; FRET efficiency after 45 min normalised by the initial value; excitation 522 nm, emission 578 and 678 nm; both purified. Conditions: remark: other sources report otherwise. (In general: Bioluminescence resonance energy transfer reports proximity on the nanometre scale.)

No constants are given. Whether binding was seen depends on the method and setting. For part of these data: Binding seen in cells or lysates may run through a third protein. Some results given as binding are weak or reduced against the parent protein; the word gives no strength. For part of these data: Tags and fused reporters may be left off the sequences shown.

Consider “endogenous caspase-1 species (premature caspase-1 and processed species including p20) in cell-free supernatants of stimulated THP-1 cells (from UniProt P29466 1-404) (enzyme)”, for which the binding result in assay [1] and in assay [2] was “binds” throughout.

As for “caspase-1^CARD-SUMO-FLAG (released from MBP by TEV protease) (from UniProt P29466 1-91) (domain or fragment)”, the binding result in assay [3] is listed as “binds”.

“FLAG-tagged caspase-1^CARD (released from MBP by TEV protease) (from UniProt P29466 1-91) (domain or fragment)”: the binding result in assay [4] was “binds weakly”; in assay [5], “binds”.

B1: caspase-1^CARD-SUMO labelled with DyLight 550 or DyLight 650 (released from MBP by TEV protease), P29466 1-91 (domain or fragment)
chain: MADKVLKEKRKLFIRSMGEGTINGLLDELLQTRVLNKEEMEKVKRENATVMDKTRALIDSVIPKGAQACQICITYICEEDSYLAGTLGLSA
modifications: here or on the partner: DyLight 550 or DyLight 650 maleimide on free cysteine residues; DyLight 550 or DyLight 650 maleimide on free cysteine residues
Consider B1, for which the binding entry in assay [6] is “binds”.
